Data taken from patent US20250213713A1, “Antibody-Drug Conjugates Targeting uPARAP Comprising Exatecan Derivatives” (ADCENDO APS, priority 2022, published 2025).
These are yes or no findings as the source states them, for the method shown. Some binding calls cover weakened binding; strength is not graded here. For some of these results: Where a sequence is shown, tags or fusion partners need not be part of it.

Columns and labels:
[1] = target: T1, soluble full-length uPARAP (UniProt Q9UBG0 31-1414, limits assumed); assay: SPR, conclusion of Example 1
T1 construct: also called CD280
T1 sequence (looked up): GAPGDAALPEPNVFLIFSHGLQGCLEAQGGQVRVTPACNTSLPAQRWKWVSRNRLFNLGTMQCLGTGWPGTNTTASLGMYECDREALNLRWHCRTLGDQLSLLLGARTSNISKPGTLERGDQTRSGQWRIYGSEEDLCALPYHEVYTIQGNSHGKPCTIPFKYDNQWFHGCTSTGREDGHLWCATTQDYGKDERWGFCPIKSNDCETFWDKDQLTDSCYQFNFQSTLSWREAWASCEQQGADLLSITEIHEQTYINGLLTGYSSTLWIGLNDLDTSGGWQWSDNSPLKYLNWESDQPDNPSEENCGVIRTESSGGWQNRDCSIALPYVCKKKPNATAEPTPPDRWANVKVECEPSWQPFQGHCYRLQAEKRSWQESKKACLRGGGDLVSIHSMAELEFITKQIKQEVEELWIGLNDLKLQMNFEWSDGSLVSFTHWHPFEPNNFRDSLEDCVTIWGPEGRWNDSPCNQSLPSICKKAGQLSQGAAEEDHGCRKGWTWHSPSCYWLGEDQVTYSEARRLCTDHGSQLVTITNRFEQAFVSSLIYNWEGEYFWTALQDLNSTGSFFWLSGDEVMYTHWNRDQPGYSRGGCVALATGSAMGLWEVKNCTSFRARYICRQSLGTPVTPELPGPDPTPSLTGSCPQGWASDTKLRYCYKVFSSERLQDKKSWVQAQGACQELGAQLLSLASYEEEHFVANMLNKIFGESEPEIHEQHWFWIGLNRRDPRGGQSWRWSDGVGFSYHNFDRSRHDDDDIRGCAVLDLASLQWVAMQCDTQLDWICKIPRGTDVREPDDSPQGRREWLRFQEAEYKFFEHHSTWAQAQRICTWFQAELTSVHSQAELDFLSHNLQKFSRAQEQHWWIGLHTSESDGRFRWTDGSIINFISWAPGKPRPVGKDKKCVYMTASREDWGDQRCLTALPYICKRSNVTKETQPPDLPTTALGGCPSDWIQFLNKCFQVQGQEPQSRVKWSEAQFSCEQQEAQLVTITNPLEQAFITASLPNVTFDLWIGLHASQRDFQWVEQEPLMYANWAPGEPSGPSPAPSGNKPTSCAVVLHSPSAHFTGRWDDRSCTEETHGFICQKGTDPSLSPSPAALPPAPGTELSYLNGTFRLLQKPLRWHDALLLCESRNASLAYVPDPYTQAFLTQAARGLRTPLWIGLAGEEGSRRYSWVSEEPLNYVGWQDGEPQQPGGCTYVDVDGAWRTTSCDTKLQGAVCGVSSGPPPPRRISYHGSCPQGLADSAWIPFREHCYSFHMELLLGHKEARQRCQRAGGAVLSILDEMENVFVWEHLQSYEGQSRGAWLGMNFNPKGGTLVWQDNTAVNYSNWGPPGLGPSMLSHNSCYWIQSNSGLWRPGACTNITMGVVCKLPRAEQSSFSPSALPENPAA

[2] = target: T1, soluble full-length uPARAP; assay: I-125-labelled antibody (5 µl, slightly less than 40 ng per well) on SAOS-2 osteosarcoma cells for 1 h or 4 h. The cell surface fraction is released with trypsin/proteinase K, the pellet is the internalized fraction, and both are read on a gamma counter. The target is taken as uPARAP on the cells. [left panel]
[3] = target: T2, soluble recombinant protein consisting of the three N-terminal domains of uPARAP (CysR, FN-II and CTLD-1) (UniProt Q9UBG0); assay: BIAcore, truncated uPARAP construct (CysR, FN-II, CTLD-1) immobilized
T2 sequence (looked up): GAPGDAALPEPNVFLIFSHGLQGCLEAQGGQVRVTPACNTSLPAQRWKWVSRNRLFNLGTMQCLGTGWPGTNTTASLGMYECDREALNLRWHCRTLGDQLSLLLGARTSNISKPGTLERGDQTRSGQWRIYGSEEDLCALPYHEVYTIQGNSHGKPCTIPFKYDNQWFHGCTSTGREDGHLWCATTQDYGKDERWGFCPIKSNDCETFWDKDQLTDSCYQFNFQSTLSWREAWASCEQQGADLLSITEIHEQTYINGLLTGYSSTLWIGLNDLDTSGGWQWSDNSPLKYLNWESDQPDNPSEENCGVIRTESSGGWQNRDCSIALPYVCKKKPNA

B1: 980.2 LC4HC3 (humanized 9b7 antibody) (antibody, human IgG1, kappa, V domains shown)
VH: QVQLVQSGAEVKKPGASVKVSCKASGYIFIDYGMHWVRQAPGQRLEWMGSINTKSGVSTYAAEFKGRVTIYSDTSASTAYMELSSLRSEDTAVYFCARPPYYSQYGSYWGQGTLVTVSS
VL: EIVMTQSPDSLAVSLGERATINCKASQNVDTYVVWYQQKPGQPPQPLIYSASSRFSGVPDRFSGSGSGTDFTLTISSLQAEDVAIYYCQQYHNSPLTFGGGTKVEIKR
notes: Complete IgG1 kappa, expressed in CHO cells; captured by anti-human Fc in the SPR assay
B1 was tested, and the binding [1] was “binds” and the binding [2] was “binds”.

B2: 980.2 LC0HC0 (chimeric antibody: variable domains of murine 9b7 fused to human IgG1 kappa constant regions) (antibody, V domains shown)
VH: QVHLVQSGPELKKPGETVKISCKASGYIFIDYGMHWVKQAPGKGLKWMGSINTKSGVSTYAAEFKGRFAFSLETSASTAYLQINNLKNEDTATYFCARPPYYSQYGSYWGQGTLVTVSA
VL: DIVMTQSQKFMSTSVGDRVSVTCKASQNVDTYVVWYQQKPGQSPKPLIYSASSRFSGVPDRFTGTGSGTDFTLTINNVQSEDLAEYFCQQYHNSPLTFGGGTKLEIKR
notes: Complete IgG1 kappa, expressed in CHO cells; captured by anti-human Fc in the SPR assay; also called parental antibody
B2 was tested, and the binding [1] was “binds”.

B3: murine monoclonal antibody 9b7 (antibody, V domains shown)
VH: QVHLVQSGPELKKPGETVKISCKASGYIFIDYGMHWVKQAPGKGLKWMGSINTKSGVSTYAAEFKGRFAFSLETSASTAYLQINNLKNEDTATYFCARPPYYSQYGSYWGQGTLVTVSA
VL: DIVMTQSQKFMSTSVGDRVSVTCKASQNVDTYVVWYQQKPGQSPKPLIYSASSRFSGVPDRFTGTGSGTDFTLTINNVQSEDLAEYFCQQYHNSPLTFGGGTKLEIK
B3 was tested, and the binding [3] was “binds”.
